Laboratory results published in US20030064954A1, “Cationic amphiphilic 1,4-dihydropyridine derivatives useful for delivery of nucleotide containing compounds” (priority 2000, published 2003).

Test system: CV-1P (African monkey green kidney fibroblasts cells)
Assay: In vitro transfection of plasmid DNA, β-galactosidase activity per well
Assay type: cell-based
Settings: CVI-P
Description: Transfer of plasmid DNA by various compounds was investigated by using CV-1P (African monkey green kidney fibroblasts cells) and D407 (human retinal pigment epithelial) cells.
The cells were cultured in Dulbecco's modified Eagle's medium (DMEM, Gibco), supplemented with 10% fetal bovine serum (FBS), penicillin/streptomycin (100 units/ml and 100 μg/ml respectively) and 2 mM L-glutamine for D 407 cell line. Cell cultures were maintained at 37° C. in a 7% CO2/air incubator. The cells were collected, counted and seeded in growth medium (100 μl) into 96-well culture plate, 20 000 cells per well. One day later the medium was replaced with fresh medium without serum (150 μl)
In the case of confluent CV1-P cells the medium (with of without serum) was changed on fourth day of cell growth before the transfection.
The complexes at different derivative/DNA charge ratios for transfection procedure were prepared just before use in 50 mM MES—50 mM HEPES—75 mM NaCl buffer, pH 7.2 in separate 96 well plates. One hour after changing the serum-free medium with 10% serum the complexes were added to the cells at […]. Dose of DNA per well was 0.6 μg. After 5 h the complexes were removed, the cells were washed with PBS, and the normal growth medium was added. After 45 h of incubation at 37° C. the cells were lysed with 2% Triton X 100, twice deep frozen and the β-galactosidase activity in each well was determined spectrofotometrically with ELx800 automated microplate reader (Bio-Tex Instruments Inc., Winooski, Vt. USA) by monitoring the hydrolysis of o-nitrophenylgalactopyranoside (oNPG) at 405 nm. Purified β-galactosidase from E.coli was used to construct a standard curve and to calculate […] activity in the transfected cells. The results are summarized in Table 3 and FIG. 4 in which the efficiencies of transfection of CVI-P cells (FIG. 4A) and D407 cells (FIG. 4B) using compound XXIII and DOTAP are shown. Transfection efficiencies are given as percentage in comparison to transfection efficiency of Lipofectin^R.

Br.CCCCCCCCCCCCCCCC[n+]1cccc(C2C(C(=O)OC3CC(C)CCC3C(C)C)=C(C)NC(C)=C2C(=O)OC2CC(C)CCC2C(C)C)c1.[Br-] (centres unmarked) [XVIII, 1-Hexadecyl-1′,4′-dihydro-3′,5′-bis(menthyloxycarbonyl)-2′,6′-dimethyl-3,4′-bipyridinium bromide]
transfection efficiency (amphiphile/DNA +/− charge ratio 0.5): 0,54 β-galactosidase units per well | transfection efficiency (amphiphile/DNA +/− charge ratio 1): 0,52 β-galactosidase units per well | transfection efficiency (amphiphile/DNA +/− charge ratio 2): 2,36 β-galactosidase units per well | transfection efficiency (amphiphile/DNA +/− charge ratio 4): 0,94 β-galactosidase units per well | transfection efficiency (amphiphile/DNA +/− charge ratio 8): 1,1 β-galactosidase units per well
